HELM strings list residues between dots; [ac] is acetyl, [am] amide, other brackets name non-standard units.
Experiment: peptide made by a vendor
Details: whole synthesis

Substance: PEPTIDE1{[PTX2O-malonyl].P.V.G.L.I.G.R.R.L.S.Y.S.R.R.R.F}$$$$V2.0
- isolated yield: 87.9%

From article PMC7856885 (Advanced Science, 2020)
